PubChem BioAssay AID1347423 (Functional Genomics Laboratory (NCATS/FGL), 2020)
Among all 52,000 sequences or so, about 210 (0.4%) were called active.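 How the source made its calls: active means gene whose silencing raises cell survival under the drug, median off-target-corrected z-score across its silencing RNAs 2 or more; inactive means the rest.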 The list shows a part of the results.

assay: Resistance to Poly (ADP-Ribose) Polymerase inhibitor: Gene Identification via Genome-wide siRNA Screen; settings: mouse BRCA2 R2336H ES cells, olaparib, CellTiter-Glo viability; active compounds read high
In short: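 Mouse BRCA2 R2336H ES cells were reverse-transfected with siRNA (20 nM final), treated at 48 h with 500 nM olaparib, and read by CellTiter-Glo after 72 h. Scores: MAD-based z per siRNA, median per gene, seed off-target correction.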

Sequence | z-score
GGAGGAGGAGGACUUUGAUTT against 5830417I10Rik | inactive: -1.23
GGCCCUGAGAGAAACAAGATT against Ly9 | inactive: -1.37
GCCGUUCUCGGGUAAUGUUTT against Cpeb2 | inactive: -1.17
GGCUGAAGGCAAAUCAAGATT against Cuzd1 | inactive: 1.22
GGCAAGAAAGAAAGGCCAATT against Rps23 | inactive: -3.11
GCCAGGCUUACAAUAGUCCTT against Tpsg1 | inactive: 2.28
GCUCCUACCCAAGGUUUAATT against Arl9 | inactive: -1.33
GGGACAUUUCUAUUAGAAUTT against Snx24 | inactive: 0.332
GCUGUUCGUGAGGAUAACCTT against C030002N13Rik | inactive: -0.156
CCUCAUGUAAUUGGACCAATT against 2010208K18Rik | inactive: 1.67
GCGCAAAGUCGAAUCCAGUTT against Vgll1 | inactive: -0.143
GCCUUAAUGAACCAGCACCTT against Tek | inactive: 1.97
GCGAUUACCUGGAUAUCGGTT against Acvrl1 | inactive: -0.296
GGGCCAUGGAUAAGAAAAATT against Psmc5 | inactive: -2.52
GGCAACAUCCAAAAAUAAATT against Lass4 | inactive: -0.0306
GGAAAAUUUUGAAAGACCUTT against Atf1 | inactive: 3.25
GGGAGGUCAACCUUUUAAUTT against Cyp2j5 | inactive: 1.22
CGUUUACCAGGAUAUCCAATT against Mmp27 | inactive: -1.12
GCUCACAACAUGAGAGUCATT against Atp6v0e | inactive: -1.48
GCCAGCAUAUGGACUACAATT against Ccnt2 | inactive: -1.52
GCAAUCGUAAGUAAAUAGATT against Gas1 | inactive: 0.0203
GGAUCACAUCUAUGAGAAGTT against Fdx1 | inactive: -0.262
GGAAAUCACCAACUUGGCCTT against Pou3f3 | inactive: -0.944
CGUGAUGUGAACGGAGGUATT against Six2 | inactive: -0.387
CCGGUACCUCAAUUCAACUTT against 2810030E01Rik | inactive: 0.256
CCUGUUAAACAGGACUAGUTT against AI597468 | inactive: 0.62

Sequence | z-score
CGACGAGAAAAUCACUCAGTT against Nkx6-1 | inactive: -0.748
GCAAAUGCAUGACUUCUAUTT against Rnf134 | inactive: 0.0189
GGAAAUGCAUCCAUGCGGUTT against 4933432P15Rik | inactive: -0.367
GGAAACUCCCUGAACCGGATT against 2700088M22Rik | inactive: 1.15
GGAUGUUUGGACCAAUCACTT against 4930543L23Rik | inactive: -0.419
GGUUGGAAAAUGAAUGAAATT against 1110028E10Rik | inactive: 0.117
GGAGAACCACUACAUGCAATT against Bcl2l1 | inactive: -1.22
CCACCAUUCUACAUAAUCATT against Abl1 | inactive: -0.42
GGCACUGCACUUUAACAUATT against Serpinb7 | inactive: -0.339
CCAAACGGAAGUAUCUUAUTT against 2810021O14Rik | inactive: -0.181
GGAAGUCACUUGCCCAAGGTT against Prm2 | inactive: 0.683
GGAGUCUGUAUUCUCAACATT against Knsl7 | inactive: -0.321
GGAGAAAGUCAUCUUUGAUTT against Cdk5rap2 | inactive: -0.542
GGGUUCUUUCCAAAGUUACTT against D030011O10Rik | inactive: 0.456
CGGAACACACCAAGAAUCUTT against Prkcabp | inactive: 1.08
GGCGGAGAAAGUGUUCAUGTT against 5730568A12Rik | inactive: 0.552
CCAAGGUCUAAAAAAAUAGTT against Adamts19 | inactive: -0.651
CCCUGUUACGAAGUUUAACTT against Slc17a7 | inactive: -0.183
GGACCUUCUAGAAGACAAGTT against Gna11 | inactive: -0.0772
GCACACUGAUGAACUUACCTT against 4933401N24Rik | inactive: 0.497
GGCCAGAACUACGAAGCCATT against Capn12 | inactive: 1.78
GGACCAAGUAUCAUGAUGUTT against Zfp369 | inactive: 0.881
GGUGGAGAACCAUAUCACATT against Abcg4 | inactive: 0.507
GCUCAAACUUUACUAUACATT against Cdh6 | inactive: -0.872
GGAAAAUGAGCAAGAAGAATT against Syt12 | inactive: 0.512
GGUAUAAAGGAUGCAUUCATT against Osmr | inactive: -0.811

Reprinted at random: seven records from the list.
Sequence | z-score
GGAGAACCACUACAUGCAATT against Bcl2l1 | inactive: -1.22
CCGGUACCUCAAUUCAACUTT against 2810030E01Rik | inactive: 0.256
GGCAAGAAAGAAAGGCCAATT against Rps23 | inactive: -3.11
CCAAACGGAAGUAUCUUAUTT against 2810021O14Rik | inactive: -0.181
CGUUUACCAGGAUAUCCAATT against Mmp27 | inactive: -1.12
GGAGUCUGUAUUCUCAACATT against Knsl7 | inactive: -0.321
GGAAAAUGAGCAAGAAGAATT against Syt12 | inactive: 0.512

Remaining list, next part

Sequence | z-score
CCUUCCAUGGUGAGGAUAATT against Stim1 | inactive: -2.35
GGAAAUGACCCACUCGUGGTT against Mllt2h | inactive: 0.467
GGGUAUCAUUACAGAUACGTT against Tpbg | inactive: 1.5
GCUUGGAAGACAUUGACCCTT against Brsk2 | inactive: -0.948
GGGCUCCACUGUUGUUAUATT against 3110038L01Rik | inactive: 0.00798
CCUAGACUUGAACAAACACTT against 2600001B17Rik | inactive: 2.75
CGAACAUUCCUUCCAUAACTT against Kcnd3 | inactive: 0.588
GGCUGAGAGUCCAAAAAGGTT against Dok3 | inactive: -1.2
CCACCUUCCUAUGUUUGUATT against Ebf2 | inactive: 0.94
GCCCAAAAGUAUAAACCAGTT against Peg12 | inactive: -1.72
GGUCUCCCACCCAACGAUATT against Kbtbd2 | inactive: 0.175
GGAUCUGGAAUCACUGUUUTT against Lmnb2 | inactive: 0.232
GCUUGGUGUGGAAUUUUUUTT against Ppp2r1a | inactive: -0.223
CCUGGAGAGCAUCCUUCUUTT against Olfr382 | inactive: 0.973
GGCAGUAGCCUUGUCUGUCTT against Prrx2 | inactive: -1.64
CCAGUUUGGACAUUGGAAATT against Cyp26b1 | inactive: 0.0117
CCAUCUACGUGGGACACAATT against Atp11a | inactive: -1.41
CGUGUACAUAGACCAUAUATT against Olfr453 | inactive: -0.513
GGAUAUUCCUGGACUGACATT against Rps6 | inactive: -3.17
GGAUUCAUCAUCUGUUACUTT against Rit1 | inactive: 1.18
GCCUAUUGAGAUCUACGGCTT against Elac1 | inactive: 0.977
GGAAAUACCAUUCAAGUGUTT against 2810428C21Rik | inactive: 0.105
GGGACUCAUGGGAUUGAAATT against Gm605 | inactive: 0.728
GGACGGGAUUGAGCCUAUGTT against Eif4e | inactive: -0.356
GGUAUAGACUGGAAGUAUUTT against Dnajc3 | inactive: -1.4
GGAGAAAACUUUCUGUGUGTT against Nrg1 | inactive: 0.285

Sequence | z-score
GGUACUACAAGAGAAAAGATT against 3110052N05Rik | inactive: -1.68
CGUACAACCUCAAGGUUCUTT against Lag3 | inactive: -1.84
GGGCACACUGUAAAGUUGGTT against 3110038L01Rik | inactive: 0.788
GCUCAGAUAUGAGCAAGCUTT against Fadd | inactive: -0.651
CCAAAGAAGGACUUAGAUUTT against Ddx50 | inactive: -0.487
GGCAAUGCUGCAUCUCCUATT against Fbln2 | inactive: -0.842
GGAGAAAAGCUGUAUACACTT against 2300008B03Rik | inactive: -0.162
GCCAGAAGAAUCUAUGUUATT against 1700008I05Rik | inactive: -0.165
GCAAAACCAUUUCGAAACATT against Slc41a3 | inactive: 0.102
GGUUCUACAUUGGCGAGAUTT against Cdc42bpb | inactive: -0.27
GGUACAAAGACUGACGAGUTT against AU067744 | inactive: 0.443
GCAUUAGAACAAAGGAUGCTT against Rps19 | inactive: -3.29
CGCAGUACAUACAACUGUGTT against Art1 | inactive: 0.827
GGAUUGUGGUCCAUGAAUATT against Tmprss7 | inactive: 0.575
GCAGUCAUUCAAGGUUCCUTT against 8430410A17Rik | inactive: -0.702
GGGUUGCUUCAACUUUUAGTT against Mpp1 | inactive: 0.623
GGCAAACCUGCUUCUGCUATT against 1700049K14Rik | inactive: -1.31
CCAUUGAGAUCAGCGACAUTT against AW539457 | inactive: -1.31
GGUCGAUCCAAGGAAAGAUTT against Gbas | inactive: -1.57
GGGAAUUACAGCACACAAUTT against Treml4 | inactive: -0.488
GGUGAGCAUGGACUAUGAUTT against Syt12 | inactive: -0.053
GUUUCUUCCAAACUCCAUCTT against Olfr487 | inactive: -0.204
GCGUGUAAGUAUGAGAACCTT against AW456874 | inactive: 0.0754
GCCAACAUGUAUCAAAGCUTT against Rpgr | inactive: -0.0745
UAAUACAUUUCGAGCUGCATT against D11Bwg0517e | inactive: -0.0517
GGCUGUGUUCUAAUCAGUATT against Gad2 | inactive: -1.7
